No constants are given. Whether binding was seen depends on the method and setting. For some assays here: In cells and extracts the contact can be indirect. Some binding calls cover weakened binding; strength is not graded here. For some assays here: Tags and fused reporters may be left off the sequences shown. Values belong to the binder of their own block, whether it stands above or below them.
Tests used:
[1] = biological target: T1, METTL16 (endogenous, HGC-27 cells) (human (endogenous in HGC-27)) (UniProt Q86W50); test: co-IP; endogenous METTL16 in HGC-27 cells precipitated with anti-METTL16 antibody or IgG (mock IP); co-precipitated SIRT2 detected by western blot
T1 sequence: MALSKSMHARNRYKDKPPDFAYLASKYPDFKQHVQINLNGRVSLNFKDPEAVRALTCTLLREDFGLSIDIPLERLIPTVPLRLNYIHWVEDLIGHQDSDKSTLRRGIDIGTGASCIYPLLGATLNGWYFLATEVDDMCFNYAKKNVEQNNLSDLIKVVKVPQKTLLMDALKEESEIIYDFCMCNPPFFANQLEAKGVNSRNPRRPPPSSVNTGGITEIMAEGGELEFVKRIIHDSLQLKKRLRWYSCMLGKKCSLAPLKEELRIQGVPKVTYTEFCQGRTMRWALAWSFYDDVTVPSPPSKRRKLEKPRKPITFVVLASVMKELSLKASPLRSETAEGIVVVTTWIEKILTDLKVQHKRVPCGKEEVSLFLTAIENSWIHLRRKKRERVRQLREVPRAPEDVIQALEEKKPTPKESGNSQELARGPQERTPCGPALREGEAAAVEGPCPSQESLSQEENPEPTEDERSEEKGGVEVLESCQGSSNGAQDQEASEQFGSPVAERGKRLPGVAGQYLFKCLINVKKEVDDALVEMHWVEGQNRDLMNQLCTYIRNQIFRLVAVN

[2] = biological target: T2, Recombinant His-tagged METTL16 (human) (UniProt Q86W50); test: pull-down; His-METTL16 on Ni-NTA beads incubated with GST-SIRT2 or GST at 4 °C (legend: 4 h; methods: overnight); beads washed five times; western blot; both purified
T2 sequence: T1 sequence

binding [1]: binds
B1: SIRT2 (endogenous, HGC-27 cells) (enzyme, UniProt Q8IXJ6 1-389)
chain: MAEPDPSHPLETQAGKVQEAQDSDSDSEGGAAGGEADMDFLRNLFSQTLSLGSQKERLLDELTLEGVARYMQSERCRRVICLVGAGISTSAGIPDFRSPSTGLYDNLEKYHLPYPEAIFEISYFKKHPEPFFALAKELYPGQFKPTICHYFMRLLKDKGLLLRCYTQNIDTLERIAGLEQEDLVEAHGTFYTSHCVSASCRHEYPLSWMKEKIFSEVTPKCEDCQSLVKPDIVFFGESLPARFFSCMQSDFLKVDLLLVMGTSLQVQPFASLISKAPLSTPRLLINKEKAGQSDPFLGMIMGLGGGMDFDSKKAYRDVAWLGECDQGCLALAELLGWKKELEDLVRREHASIDAQSGAGVPNPSTSASPKKSPPPAKDEARTTEREKPQ

binding [2]: binds
B2: GST-SIRT2 (enzyme, UniProt Q8IXJ6 1-389)
chain: B1 chain

— PMC10589265
